We go through one molecule from publication doi:10.1101/2020.05.02.074187 (bioRxiv, 2020).

Results are given in words; binding and its absence hold for the method and conditions named. Some results given as binding are weak or reduced against the parent protein; the word gives no strength.

This assay has as its target E-cadherin endogenously expressed on the apical surface of MDCK cells (canine (endogenous in MDCK)) (UniProt F1PAA9). As to the kind of experiment: single-molecule AFM force spectroscopy.

B1: recombinant E-cadherin extracellular region, biotinylated monomer with C-terminal Avi tag (domain or fragment, UniProt F1PAA9 157-712, looked up)
chain: DWVIPPISCPENEKGPFPKNLVQIKSNRDKEIKVFYSITGQGADAPPVGVFIIERETGWLKVTEPLDREQIAKYILYSHAVSSNGNAVEDPMEIVITVTDQNDNKPEFTQAVFQGSVTEGALPGTSVMQVTATDADDDVNTYNAAIAYSILTQDPLLPSSMMFTINKDTGVISVLTTGLDREGVPMYTLVVQAADLQGEGLTTTATAVITVTDINDNPPIFNPTTYQGRVPENKANVEIAVLKVTDADVPDTPAWRAVYTILNNNNDQFVVTTDPVTNDGILKTTKGLDFEDKQQYVLYVTVVNVTPFEVILSTSTATVTVDVEDVNEAPIFIPCPKVVSIPEDFGVGQEITSYTAEDPDTYMEQRITYRIWRDAAGWLEVNPESGAIFTRAELDREDFEHVKNSTYEALIIAIDNGSPVATGTGTLLLVLSDVNDNGPIPEPRNMDFCQKNPQPHVINIIDPDLPPNTSPFTAELTHGASVNWTIEYNDPARESLILKPKKTLELGDYKINLKLTDNQNKDQVTTLDVFVCDCEGVVNSCKRTAPYAEAGLQVPA
modifications: biotin (biotinylated with BirA enzyme)
In the case of B1, the binding result is on record as “binds”.
